Assay results published in PubChem BioAssay AID330 (DTP/NCI, 2004).
The list does not hold the whole screen: it is rich in T/C values a quarter to a half above the control, in often repeated tests (any T/C) and in doses without a T/C. Other doses and runs of a compound stand elsewhere. T/C gives the treated animals as a percentage of the vehicle group. Some doses have a count of surviving animals in place of a T/C: the source holds a T/C of zero for them, seemingly a mark for toxic or unscored doses. Some doses without a T/C left all or most animals alive at the check, yet need not have been tolerated: the source hardly ever lists a survival T/C far under the control, and the zero likely stands for such cases as well. Counts of survivors are from the toxicity check (mostly the fifth day) where no day follows; animals may have died later. Schedule codes are those of the source, read here as Q, the interval in days (D) or hours (H), X, the number of doses. Where survival is the endpoint, this PubChem deposit counts one and a half times the control or more as active, and values a quarter to a half above the control carry no call in these data; other NCI protocols may use other cut-offs. Marks such as (2×) give the number of equal values in this list. Some entries were tested several times; the results are listed from low to high.

System: P388 leukemia ip, CD2F1 mice, survival T/C
Test: NCI In Vivo Anticancer Drug Screen. Data for tumor model P388 Leukemia (intraperitoneal) in CD2F1 (CDF1) mice
Conditions: T/C endpoint: median survival time, higher T/C = longer survival
[1] = dose: 50.0 mg/kg/injection, schedule: Q01DX009 (ip), vehicle: saline
[2] = dose: 100.0 mg/kg/injection, schedule: Q01DX009 (ip), vehicle: saline with Tween-80
[3] = dose: 200.0 mg/kg/injection, schedule: Q01DX009 (ip), vehicle: saline with Tween-80
[4] = dose: 50.0 mg/kg/injection, schedule: Q01DX009 (ip), vehicle: saline with Tween-80

Compound: O=C(Nc1ccc(Cl)cc1)NN1CCCCCC1
- survivor count (dose: 100.0 mg/kg/injection, schedule: Q04DX002 (ip), vehicle: saline with Tween-80): 2 of 6

Compound: CC[N](CC)[Ge]([CH2]C)[CH2]C.C[CH2][Ge]([CH2]C)[CH2]C
- T/C [1]: 133 % of control
- survivor count [1]: 0 of 6
- survivor count (dose: 200.0 mg/kg/injection, schedule: Q01DX009 (ip), vehicle: saline): 0 of 6

Compound: CN[C@H]1CCc2cc(OC)c(OC)c(OC)c2-c2ccc(O)c(=O)cc21
- T/C (dose: 160.0 mg/kg/injection, schedule: Q01DX009 (ip), vehicle: Klucel (hydroxypropylcellulose) (HPC)): 135 % of control
- survivor count (dose: 320.0 mg/kg/injection, schedule: Q01DX009 (ip), vehicle: Klucel (hydroxypropylcellulose) (HPC)): 0 of 5

Compound: Nc1nn(-c2cccc(C(F)(F)F)c2)c2cccc[n+]12
- survivor count [2]: 1 of 6
- survivor count (dose: 100.0 mg/kg/injection, schedule: Q01DX009 (ip), vehicle: water): 5 of 6
- survivor count [3]: 0 of 6
- survivor count (dose: 200.0 mg/kg/injection, schedule: Q01DX009 (ip), vehicle: water): 0 of 6
- survivor count (dose: 400.0 mg/kg/injection, schedule: Q01DX009 (ip), vehicle: water): 0 of 6

Compound: CC1=CC2=C(C=O)C(=O)[C@](C)(O)[C@@H](O)C2=CO1
- survivor count [4]: 6 of 6

Compound: CN(Cc1cnc2nc(N)nc(N)c2n1)c1ccc(C(=O)NC(CCC(=O)OCc2cc3c(cc2Cl)OCO3)C(=O)OCc2cc3c(cc2Cl)OCO3)cc1 (stereo unspecified)
- survivor count (dose: 7.5 mg/kg/injection, schedule: Q01DX005 (ip), vehicle: saline with Tween-80): 6 of 6
- survivor count (dose: 15.0 mg/kg/injection, schedule: Q01DX005 (ip), vehicle: saline with Tween-80): 6 of 6
- survivor count (dose: 30.0 mg/kg/injection, schedule: Q01DX005 (ip), vehicle: saline with Tween-80): 6 of 6
- survivor count (dose: 60.0 mg/kg/injection, schedule: Q01DX005 (ip), vehicle: saline with Tween-80): 4 of 6
- survivor count (dose: 120.0 mg/kg/injection, schedule: Q01DX005 (ip), vehicle: saline with Tween-80): 4 of 6
- survivor count (dose: 240.0 mg/kg/injection, schedule: Q01DX005 (ip), vehicle: saline with Tween-80): 5 of 6

Compound: C[CH2][Ge]([CH2]C)[CH2]C.C[CH2][Ge]([CH2]C)[CH2]C.C[CH2][Ge]([CH2]C)[O][Ge]([CH2]C)[CH2]C
- T/C (dose: 25.0 mg/kg/injection, schedule: Q01DX009 (ip), vehicle: saline with Tween-80): 130 % of control
- T/C [4]: 133 % of control
- T/C [2]: 141 % of control
- survivor count [3]: 2 of 6
- survivor count (dose: 400.0 mg/kg/injection, schedule: Q01DX009 (ip), vehicle: saline with Tween-80): 0 of 6

Compound: COc1cccc2c1C(=O)c1c(O)c3c(c(O)c1C2=O)CC(O)(C(C)NCCCO)CC3OC1CC(N)C(O)C(C)O1 (stereo unspecified)
- T/C (dose: 3.0 mg/kg/injection, schedule: Q01DX009 (ip), vehicle: water): 126 % of control
- T/C (dose: 6.0 mg/kg/injection, schedule: Q01DX009 (ip), vehicle: water): 139 and 140 % of control
- T/C (dose: 12.0 mg/kg/injection, schedule: Q01DX009 (ip), vehicle: water): 149 % of control (2×)

Compound: CC(C)Oc1nc(N2CCNCC2)nc2c1CCCC2
- survivor count (dose: 120.0 mg/kg/injection, schedule: Q01DX005 (ip), vehicle: saline): 1 of 6
- survivor count (dose: 240.0 mg/kg/injection, schedule: Q01DX005 (ip), vehicle: saline): 0 of 6

Compound: Cc1ccc(OP(=O)(Oc2ccc(C)cc2)Oc2ccc(C)cc2)cc1.Cc1ccc(OP(=O)(Oc2ccc(C)cc2)Oc2ccc(C)cc2)cc1.Cc1ccc(OP(=O)(Oc2ccc(C)cc2)Oc2ccc(C)cc2)cc1.Cc1ccc(OP(=O)(Oc2ccc(C)cc2)Oc2cccc(C)c2)cc1.[Cd+2].[O-][Cl+3]([O-])([O-])O
- survivor count (dose: 100.0 mg/kg/injection, schedule: Q01DX009 (ip), vehicle: Klucel (hydroxypropylcellulose) (HPC)): 0 of 6
- survivor count (dose: 200.0 mg/kg/injection, schedule: Q01DX009 (ip), vehicle: Klucel (hydroxypropylcellulose) (HPC)): 0 of 6

Compound: CC1(C)CCC2(C(=O)O)CCC3(C)C(=CCC4C5(C)CCC(OC6OC(CO)C(O)C(OC7OC(CO)C(O)C(O)C7O)C6OC6OC(CO)C(O)C(O)C6O)C(C)(C)C5CCC43C)C2C1 (stereo unspecified)
- survivor count (dose: 60.0 mg/kg/injection, schedule: Q01DX005 (ip), vehicle: Klucel (hydroxypropylcellulose) (HPC)): 5 of 5
